Measurements published in PubChem BioAssay AID540256 (National Center for Advancing Translational Sciences (NCATS), 2011).
“And” between values parts separate entries of the source, which are not always exact repeats. Equal values may be shown once. Screen size: about 300,000 compounds; about 3,700 (1.2%) were called active. Inconclusive results, whose numbers are uncertain, are shown with a selection of clear calls. Calls come from the whole dose curve; tested in HEK293 cells. Potencies beside an inconclusive call are fits to weak or partial responses and may not hold up.

Assay: qHTS for Inhibitors of binding or entry into cells for Lassa Virus; note: nearly all actives have a fitted effect of over 50% in size
Settings: Lassa virus pseudotype entry inhibition, cell reporter; series mostly up to 37.9 µM
Potency is the fitted concentration of half-maximal effect.

Question: For `O=C1CC2(CCN(C(=O)c3ccc(Cl)cc3)CC2)Oc2ccccc21`, which Potency is on record?
Answer: inactive

Question: For `COc1ccc(N2CCC(CNC(=S)Nc3cccc(C)c3)C2)cc1` (configuration not stated), which Potency is on record?
Answer: inactive

Question: For `CCCNC(=O)c1ccc2nc(-c3ccccc3)c(-c3ccccc3)nc2c1`, which Potency is on record?
Answer: inconclusive: 8.91 µM [inhibitor, partial curve, poor fit]

Question: For `COc1ccc(/C=C/C(=O)Nc2ccc(OC)nc2)cc1`, which Potency is on record?
Answer: inactive

Question: With `CC(=O)/C(=N\Nc1ccccc1Cl)Sc1nnc(-c2ccccc2)n1-c1ccccc1` as the compound, how does the Potency read?
Answer: inactive

Question: For `CCOC(=O)/C(=C/C1=CC(=C/N(C)C)/C(=O)O1)C(C)=O`, which Potency is on record?
Answer: inactive

Question: For `Cc1noc2ncnc(N3CCN(c4ccccc4F)CC3)c12`, which Potency is on record?
Answer: inactive

Question: Which Potency does the source give for `O=C(Nc1cc(S(=O)(=O)N2CCOCC2)ccc1N1CCCCC1)c1ccccc1Br` here?
Answer: inconclusive: 1 µM [inhibitor, partial curve, poor fit]

Question: Which Potency does the source give for `Nc1c(C(=O)Nc2ccc(OC(F)(F)F)cc2)sc2nc3c(cc12)N1CCC3CC1` here?
Answer: inactive

Question: For `COc1ccc(C(C(=O)NC2CCCC2)N(C(=O)c2ccco2)c2ccccc2OC)cc1` (configuration not stated), which Potency is on record?
Answer: inconclusive: 12.6 µM [inhibitor, partial curve, poor fit]

Question: For `COc1cc2c(cc1OC)C(COc1ccc3c(C)cc(=O)oc3c1)N(C(=O)c1ccco1)CC2` (configuration not stated), which Potency is on record?
Answer: inconclusive: 10.3 µM [inhibitor, partial curve, poor fit]

Question: Which Potency does the source give for `COc1ccc(S(=O)(=O)N2CCC3(CC2)OCCN3S(=O)(=O)c2ccc(C)cc2)cc1OC` here?
Answer: inconclusive: 35.5 µM [inhibitor, single point]

Question: For `Cc1ccc2c(c1)c1c3n2CCCN(Cc2ccccc2)C3CCC1` (configuration not stated), which Potency is on record?
Answer: inactive

Question: For `O=C(CSc1nc(=O)[nH]c2c1CCC2)NCc1ccc(Cl)cc1`, which Potency is on record?
Answer: inactive

Question: Which Potency does the source give for `O=C(c1cccs1)n1nc(NCc2ccccc2)nc1NCc1ccccc1` here?
Answer: active: 10 µM

Question: For `S=C(NCCCN1CCOCC1)Nc1ccc(-c2nc3ccccc3[nH]2)cc1`, which Potency is on record?
Answer: inconclusive: 2.51 µM [activator, partial curve, poor fit]

Question: Which Potency does the source give for `CCOc1cc(/C=N/NC(=O)Cc2ccc(C(F)(F)F)cc2[N+](=O)[O-])ccc1O` here?
Answer: inactive

Question: With `CC(CNC(=O)c1ccc2c(c1)nc1n2CCOC1)c1ccccc1` (configuration not stated) as the compound, how does the Potency read?
Answer: inconclusive: 3.16 µM [activator, partial curve, poor fit]

Question: With `Cc1ccc(-c2nnc(N3CCN(c4ccccn4)CC3)c3ccccc23)cc1` as the compound, how does the Potency read?
Answer: inconclusive: 15.8 µM [inhibitor, single point]

Question: Which Potency does the source give for `Cc1cccc(C)c1OCCn1c(C2CC(=O)N(Cc3ccc(F)cc3)C2)nc2ccccc21` (configuration not stated) here?
Answer: inconclusive: 2.82 µM [activator, single point]

Question: For `C/C(=N/OCc1ccc(Br)cc1)c1ccccn1`, which Potency is on record?
Answer: inconclusive: 17.8 µM [inhibitor, single point]

Question: With `Cc1nc(SCc2ccc([N+](=O)[O-])cc2)nc2ccccc12` as the compound, how does the Potency read?
Answer: inactive

Question: With `CCOc1ccc2[nH]c(=O)c(CN(CCO)C(c3nnnn3C3CCCCC3)C(C)C)cc2c1` (configuration not stated) as the compound, how does the Potency read?
Answer: inconclusive: 7.08 µM [inhibitor, partial curve, poor fit]

Question: Which Potency does the source give for `CC(CCC(=O)OC[C@H]1O[C@H](C#Cc2ccccc2)C=C[C@H]1Oc1ccc(C)cc1)=NO[C@H](C)c1cn([C@@H]2COC[C@@H]2O)nn1` here?
Answer: inconclusive: 2.99 µM [inhibitor, single point]

Question: For `CCOc1ccc(CCNC(=O)CCN2N=C(c3ccc(OC)cc3)CCC2=O)cc1OCC`, which Potency is on record?
Answer: inconclusive: 7.94 µM [inhibitor, partial curve, poor fit]

Question: Which Potency does the source give for `O=C(COC(=O)/C(=C/c1cccs1)c1cccs1)NCc1ccccc1Cl` here?
Answer: inconclusive: 2.31 µM [inhibitor, single point]

Question: Which Potency does the source give for `CCCC=Cc1ccc(CN2C(C(C)C)C(=O)N(Cc3cn(CCC4OCCO4)nn3)CCS2(=O)=O)cc1` (configuration not stated) here?
Answer: inconclusive: 15.8 µM [inhibitor, partial curve, poor fit]

Question: With `Cc1ccc(Nc2nc(-c3ccccc3)c(CC(=O)O)s2)cc1` as the compound, how does the Potency read?
Answer: inactive

Question: Which Potency does the source give for `O=C(CN1C(=O)NC2(CCCC2)C1=O)N1CCN(S(=O)(=O)c2ccccc2F)CC1` here?
Answer: inactive

Question: With `O=C(COC(=O)COc1ccccc1)Nc1ccc(OC(F)(F)F)cc1` as the compound, how does the Potency read?
Answer: inconclusive: 31.6 µM [activator, single point]

Question: For `O=C(CO/N=C/c1ccccc1)N1c2ccccc2Oc2ccccc21`, which Potency is on record?
Answer: inactive

Question: Which Potency does the source give for `CCOc1cc(/C=N/Nc2cccc(C(=O)O)c2)ccc1OC(=O)c1ccccc1` here?
Answer: inconclusive: 0.708 µM [inhibitor, full curve, poor fit]

Question: Which Potency does the source give for `O=C(CCC1N=C2c3ccccc3N=C(SCc3ccccc3Cl)N2C1=O)N1CCN(c2ccccc2)CC1` (configuration not stated) here?
Answer: inactive

Question: For `CC(=O)Nc1cccc(Oc2ncnc3scc(-c4ccccc4)c23)c1`, which Potency is on record?
Answer: inconclusive: 0.794 µM [inhibitor, partial curve, poor fit]

Question: With `O=C(NCc1ccccc1)c1cc2ccccc2o1` as the compound, how does the Potency read?
Answer: inconclusive: 35.5 µM [inhibitor, single point] and inconclusive: 35.5 µM [inhibitor, partial curve, poor fit]

Question: For `Cc1ccccc1NC(=S)N(C)CCc1ccccn1`, which Potency is on record?
Answer: inactive

Question: Which Potency does the source give for `COc1ccc(OC)c2sc(N(Cc3cccnc3)C(=O)c3ccc(C(C)=O)cc3)nc12` here?
Answer: inconclusive: 20 µM [inhibitor, single point]

Question: For `NC1=NC(=O)C(Cc2cc(Cl)ccc2Cl)S1` (configuration not stated), which Potency is on record?
Answer: inactive

Question: With `O=C(Nc1ccc2nn(-c3ccccc3)nc2c1)c1ccc2c(c1)OCO2` as the compound, how does the Potency read?
Answer: inactive

Question: With `CN(CC(=O)O)Cc1nc2ccccc2[nH]1` as the compound, how does the Potency read?
Answer: inactive

Question: Which Potency does the source give for `O=C(NCc1ccncc1)C(=O)NCC1OCCCN1S(=O)(=O)c1cc(F)ccc1F` (configuration not stated) here?
Answer: inactive

Question: Which Potency does the source give for `COc1ccc(OC)c(C(=O)/C=C/c2cccnc2)c1` here?
Answer: inconclusive: 25.1 µM [inhibitor, single point]

Question: Which Potency does the source give for `O=C(N/N=C/C(Cl)=C\c1ccccc1)c1cccs1` here?
Answer: inconclusive: 35.5 µM [inhibitor, single point]

Question: For `COc1ccc(S(=O)(=O)N/N=C\c2ccc(OC)c(COc3ccc(C)cc3[N+](=O)[O-])c2)cc1`, which Potency is on record?
Answer: inconclusive: 7.94 µM [inhibitor, partial curve]

Question: With `O=C(c1ccc2c(c1)N(Cc1ccccc1F)C(=O)c1ccccc1S2=O)N1CCCCC1` (configuration not stated) as the compound, how does the Potency read?
Answer: inactive

Question: For `COc1ccc(S(=O)(=O)N2CCCCC2)cc1NC(=O)CN(C)C1CCCCC1`, which Potency is on record?
Answer: inconclusive: 7.08 µM [inhibitor, partial curve, poor fit]

Question: For `CC(C)CN(CC(C)C)c1ccc(C=C2C(=O)NC(=S)NC2=O)cc1[N+](=O)[O-]`, which Potency is on record?
Answer: inconclusive: 17.8 µM [inhibitor, single point]

Question: For `c1cc(CN2CCCCC2)cc(OCCCNc2nc3ccccc3s2)c1`, which Potency is on record?
Answer: active: 16.4 µM

Question: Which Potency does the source give for `Cc1nn2c3ccccc3n(Cc3ccccc3)c2nc1=O` here?
Answer: inconclusive: 35.5 µM [activator, single point]

Question: For `CN1CCN(c2ccc(Cl)cc2NC(=O)CC2OC(=O)c3ccccc32)CC1` (configuration not stated), which Potency is on record?
Answer: inactive

Question: For `CC(=O)Nc1nc(C)c(-c2csc(Nc3ccccn3)n2)s1`, which Potency is on record?
Answer: inactive

Question: Which Potency does the source give for `C=C(C)CNC(=S)Nc1sc2c(c1C(=O)OCC)CC(C)(C)OC2` here?
Answer: inactive

Question: Which Potency does the source give for `Cc1cc(C(=O)COC(=O)c2cccc(O)c2)c(C)n1C1CC1` here?
Answer: inconclusive: 1.12 µM [inhibitor, full curve, poor fit]

Question: Which Potency does the source give for `CN=C1S/C(=C\c2ccc(N3CCCC3)c(F)c2)C(=O)N1C` here?
Answer: inactive

Question: Which Potency does the source give for `COc1cc2c(cc1OC)C(c1cc3cc(OC)c(OC)cc3[nH]c1=O)N(C(=O)C1CC1)CC2` (configuration not stated) here?
Answer: active: 25.9 µM

Question: With `Cc1ccc(S(=O)(=O)NCC(c2ccco2)N2CCN(c3ccccc3F)CC2)cc1` (configuration not stated) as the compound, how does the Potency read?
Answer: inactive

Question: With `O=[N+]([O-])c1cc(S(=O)(=O)N2CCCC2)ccc1NCCCN1CCOCC1` as the compound, how does the Potency read?
Answer: inactive

Question: For `Cc1cccc(N(CC(=O)Nc2cccc(Cl)c2C)S(C)(=O)=O)c1C`, which Potency is on record?
Answer: inactive

Question: With `COc1ccc(OC)c(-c2csc(NC(=O)CSCc3c(C)noc3C)n2)c1` as the compound, how does the Potency read?
Answer: inconclusive: 3.55 µM [inhibitor, partial curve, poor fit]

Question: With `O=C(CSc1nnnn1-c1ccccc1)Nc1ccc(N2CCOCC2)c(Cl)c1` as the compound, how does the Potency read?
Answer: inconclusive: 1.46 µM [inhibitor, full curve, poor fit]

Question: Which Potency does the source give for `O=C(CN(c1ccc(Cl)cc1)S(=O)(=O)c1ccccc1)N/N=C/c1ccco1` here?
Answer: inactive

Question: For `Cc1cccc(-n2ccnc2SCC(=O)Nc2cc(C)on2)c1`, which Potency is on record?
Answer: inactive

Question: Which Potency does the source give for `Cc1ccc(CNC(=O)CSc2nc(=O)n3ccccc3n2)cc1` here?
Answer: inconclusive: 14.1 µM [activator, single point]

Question: For `CCCCN(CC)CCCNC(=O)C1CCN(c2nc3ccc(CC)cc3s2)CC1`, which Potency is on record?
Answer: inconclusive: 15.8 µM [inhibitor, single point]

Question: With `CCCn1nc(NC(=O)c2cccs2)c2cc3cc(OC)ccc3nc21` as the compound, how does the Potency read?
Answer: inconclusive: 1.26 µM [inhibitor, single point]

Question: Which Potency does the source give for `COc1cccc(CNC(=O)Cn2c(SCC(=O)Nc3ccc(F)cc3)nc3ccccc32)c1` here?
Answer: inconclusive: 12.6 µM [inhibitor, single point]

Question: Which Potency does the source give for `Cc1ccc2c(c1)-c1c(c(C(=O)NCCc3ccccc3)nn1C)CS2` here?
Answer: inconclusive: 14.1 µM [inhibitor, single point]

Question: Which Potency does the source give for `O=C(CNC(=O)c1cccs1)N/N=C/c1ccc(O)cc1O` here?
Answer: inactive

Question: Which Potency does the source give for `COc1cc(NC(=O)CSc2nc3c(c(=O)[nH]2)CCCC3)cc(OC)c1OC` here?
Answer: inactive

Question: For `O=c1c2c([N+](=O)[O-])cc([N+](=O)[O-])cc2sn1Cc1ccccc1`, which Potency is on record?
Answer: inconclusive: 35.5 µM [inhibitor, single point]

Question: For `Cc1ccc(C)c(OCC(=O)Nc2nc3ccc([N+](=O)[O-])cc3s2)c1C`, which Potency is on record?
Answer: inactive

Question: Which Potency does the source give for `CCOC(=O)N1CCN(CC(=O)N2CCC(C(N)=O)CC2)CC1` here?
Answer: inconclusive: 6.31 µM [activator, partial curve]
